The text below walks through data of US11827701B2, “IL-6 binding molecules” (argenx BV, priority 2012, dated 2023).

Where a chain is given by its changes, count along the chain named.

This data set is described as follows: Production level of IgG1 after transient expression in HEK293E cells. The conditions noted are these: production #2. The procedure:
The VH and VL of the germlined versions of 68F2 were recloned in pUPE Heavy Chain and Light Chain expression vectors, respectively, for transient expression of full-length IgG1 antibodies. After transient expression in HEK293E cells, IgG1 antibodies were purified with protein A and quantified by measurement of OD280. Table 19 below summarizes the production levels of the germlined derivatives together with the levels of the 68F2 parental antibody. Potencies (in pM) were also measured in a 7TD1 based proliferation assay for each antibody.

B1: 127F1 (24.06) (antibody, V domains shown)
VH: EVQLQESGPGLVKPSQTLSLTCTVSGGSITTRYYAWSWIRQPPGKGLEWIGVIDYDGDTYYSPSLKSRVSISWDTSKNQFSLKLSSVTAADTAVYYCARDPDVVTGFHYDYWGQGTLVTVSS
VL: QSVLTQPPSVSGTPGQRVTISCAGANNDIGTYAYVSWYQQLPGTAPKLLIYKVTTRASGVPDRFSGSKSGNSASLTITGLQSEDEADYYCASYRNFNNAVFGGGTHLTVL
As for B1, the “Production level HEK #2” value stood at 24 µg/mL.

B2: 128G3 (24.06) (antibody, V domains shown)
VH: B1 VH with V69T, S70T, W73V, A89P, A90E, L117M
VL: B1 VL with V3A, T13A, R17T, S72T, T76A, T78S, S82A
B2: the “Production level HEK #2” value amounted to 34 µg/mL.

B3: 129E11 (24.06) (antibody, V domains shown)
VH: B1 VH with T31S, I50M, S70T, W73V, A90E
VL: B1 VL with V3A, S9L, T13S, R17T, S72T, T78S, G103T, H106K
Take B3: the “Production level HEK #2” value stood at 26 µg/mL.

B4: 68F2 (24.06) (antibody, V domains shown)
VH: B1 VH with I50M, V69T, K83Q, A89P, A90E, L117Q
VL: QSALTQPPLVSGTPGQTVTISCAGANNDIGTYAYVSWYQQLPGTAPKLLIYKVTTRASGIPSRFSGSKSGNTASLTISGLQSEDEADYYCASYRNFNNAVFGRGTHLTVLG
For the molecule B4, the “Production level HEK #2” value was determined as 48 µg/mL.

B5: 126A3 (24.06) (antibody, V domains shown)
VH: B1 VH with S70T, W73V, L117M
VL: B1 VL with V3A, T13A, R17T, V60I, D62S, S72T, G103R, H106K
Turning to B5, the “Production level HEK #2” value was determined as 28 µg/mL.

B6: 127E2 (24.06) (antibody, V domains shown)
VH: B1 VH with S70T, W73V, K83Q, A90E, L117Q
VL: B1 VL with V3A, T13S, R17T, L41P, S72T, T78S, S82A
Turning to B6, the “Production level HEK #2” value was determined as 15 µg/mL.
